Data as given in paper PMC11285139.

Amino acid sequences for entries named in this document (tags omitted).
UniProt P31947: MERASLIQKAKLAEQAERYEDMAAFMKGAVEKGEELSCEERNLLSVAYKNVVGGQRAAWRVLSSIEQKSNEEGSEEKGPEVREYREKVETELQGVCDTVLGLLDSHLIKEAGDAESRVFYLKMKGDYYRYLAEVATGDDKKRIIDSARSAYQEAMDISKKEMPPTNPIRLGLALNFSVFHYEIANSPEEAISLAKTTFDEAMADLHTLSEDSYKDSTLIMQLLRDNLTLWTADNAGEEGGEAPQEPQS
UniProt P15311: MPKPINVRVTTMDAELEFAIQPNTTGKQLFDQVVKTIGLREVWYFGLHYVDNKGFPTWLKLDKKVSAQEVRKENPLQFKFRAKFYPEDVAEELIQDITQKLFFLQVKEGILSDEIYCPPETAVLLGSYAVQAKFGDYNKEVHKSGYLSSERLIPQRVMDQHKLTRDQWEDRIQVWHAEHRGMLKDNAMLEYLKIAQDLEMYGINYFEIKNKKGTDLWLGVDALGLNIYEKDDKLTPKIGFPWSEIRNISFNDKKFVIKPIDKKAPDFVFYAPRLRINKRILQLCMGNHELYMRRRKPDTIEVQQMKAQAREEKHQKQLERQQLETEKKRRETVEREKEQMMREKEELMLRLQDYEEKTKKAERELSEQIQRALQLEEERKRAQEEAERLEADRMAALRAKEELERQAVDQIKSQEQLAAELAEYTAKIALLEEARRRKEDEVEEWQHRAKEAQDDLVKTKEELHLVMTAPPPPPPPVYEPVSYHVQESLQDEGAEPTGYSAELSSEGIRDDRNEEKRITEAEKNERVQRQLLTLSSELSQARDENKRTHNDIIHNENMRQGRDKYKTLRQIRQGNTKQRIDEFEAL
UniProt P26038: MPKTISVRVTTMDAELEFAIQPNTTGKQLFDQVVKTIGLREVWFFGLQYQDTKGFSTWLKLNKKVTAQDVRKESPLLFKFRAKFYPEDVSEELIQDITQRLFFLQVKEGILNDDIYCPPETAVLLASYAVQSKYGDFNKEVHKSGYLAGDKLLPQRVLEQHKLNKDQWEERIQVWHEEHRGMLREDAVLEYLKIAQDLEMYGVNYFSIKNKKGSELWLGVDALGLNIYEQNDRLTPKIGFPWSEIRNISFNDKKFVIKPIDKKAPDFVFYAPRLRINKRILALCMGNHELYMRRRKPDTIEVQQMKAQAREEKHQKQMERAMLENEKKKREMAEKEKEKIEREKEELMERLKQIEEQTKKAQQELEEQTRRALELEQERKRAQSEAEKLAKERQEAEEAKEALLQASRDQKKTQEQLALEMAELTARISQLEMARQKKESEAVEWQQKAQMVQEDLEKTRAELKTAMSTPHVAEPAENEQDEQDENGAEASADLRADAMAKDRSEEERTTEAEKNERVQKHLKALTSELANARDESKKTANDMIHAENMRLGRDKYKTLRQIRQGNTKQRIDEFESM
UniProt P10644: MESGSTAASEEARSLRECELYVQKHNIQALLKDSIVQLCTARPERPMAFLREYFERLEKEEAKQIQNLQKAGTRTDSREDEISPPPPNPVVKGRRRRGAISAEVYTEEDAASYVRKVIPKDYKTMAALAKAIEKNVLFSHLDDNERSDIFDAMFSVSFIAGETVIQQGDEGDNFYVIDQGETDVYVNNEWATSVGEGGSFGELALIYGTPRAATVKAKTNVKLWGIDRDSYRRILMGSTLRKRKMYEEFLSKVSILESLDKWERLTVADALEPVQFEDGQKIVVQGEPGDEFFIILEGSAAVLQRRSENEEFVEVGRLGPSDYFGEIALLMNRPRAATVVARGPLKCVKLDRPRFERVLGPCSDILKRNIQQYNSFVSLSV
UniProt Q13526: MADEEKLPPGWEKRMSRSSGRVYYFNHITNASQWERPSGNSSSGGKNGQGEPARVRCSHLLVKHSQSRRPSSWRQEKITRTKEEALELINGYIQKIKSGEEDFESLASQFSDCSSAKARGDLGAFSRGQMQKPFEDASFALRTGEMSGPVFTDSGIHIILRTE
UniProt P27986: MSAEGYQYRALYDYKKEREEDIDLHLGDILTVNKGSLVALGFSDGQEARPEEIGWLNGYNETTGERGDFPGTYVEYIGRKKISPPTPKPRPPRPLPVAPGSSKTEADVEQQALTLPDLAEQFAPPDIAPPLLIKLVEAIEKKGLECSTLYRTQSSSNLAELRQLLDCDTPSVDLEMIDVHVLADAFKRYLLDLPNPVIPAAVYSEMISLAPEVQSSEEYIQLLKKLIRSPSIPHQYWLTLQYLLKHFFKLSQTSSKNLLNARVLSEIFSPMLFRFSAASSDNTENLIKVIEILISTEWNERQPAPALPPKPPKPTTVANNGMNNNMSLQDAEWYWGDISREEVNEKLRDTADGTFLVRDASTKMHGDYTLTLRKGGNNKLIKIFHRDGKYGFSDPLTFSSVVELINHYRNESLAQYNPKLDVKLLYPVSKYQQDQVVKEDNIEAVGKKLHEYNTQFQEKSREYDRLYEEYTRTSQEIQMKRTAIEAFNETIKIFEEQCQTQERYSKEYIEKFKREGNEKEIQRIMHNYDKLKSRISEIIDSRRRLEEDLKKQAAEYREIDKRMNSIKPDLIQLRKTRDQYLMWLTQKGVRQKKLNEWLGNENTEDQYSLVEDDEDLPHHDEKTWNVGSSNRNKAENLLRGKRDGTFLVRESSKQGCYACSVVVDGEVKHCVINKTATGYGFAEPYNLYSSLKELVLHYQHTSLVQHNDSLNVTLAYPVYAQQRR
UniProt P35241: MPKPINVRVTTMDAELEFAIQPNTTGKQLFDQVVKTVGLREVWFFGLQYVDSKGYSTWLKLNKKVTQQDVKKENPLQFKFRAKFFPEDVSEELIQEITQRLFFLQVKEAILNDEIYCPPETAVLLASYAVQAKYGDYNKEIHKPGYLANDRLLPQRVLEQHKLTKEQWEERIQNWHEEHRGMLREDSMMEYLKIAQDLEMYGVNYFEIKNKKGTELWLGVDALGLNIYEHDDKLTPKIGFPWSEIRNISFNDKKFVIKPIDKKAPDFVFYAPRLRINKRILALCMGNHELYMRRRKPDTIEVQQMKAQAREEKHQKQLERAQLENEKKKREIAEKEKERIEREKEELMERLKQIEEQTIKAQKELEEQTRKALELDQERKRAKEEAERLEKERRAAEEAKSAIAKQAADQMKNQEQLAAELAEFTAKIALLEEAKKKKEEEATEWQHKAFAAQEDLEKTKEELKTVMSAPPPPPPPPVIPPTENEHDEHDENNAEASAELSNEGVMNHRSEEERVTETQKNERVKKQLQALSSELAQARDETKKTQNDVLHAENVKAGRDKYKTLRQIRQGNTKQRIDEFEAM
UniProt P62140: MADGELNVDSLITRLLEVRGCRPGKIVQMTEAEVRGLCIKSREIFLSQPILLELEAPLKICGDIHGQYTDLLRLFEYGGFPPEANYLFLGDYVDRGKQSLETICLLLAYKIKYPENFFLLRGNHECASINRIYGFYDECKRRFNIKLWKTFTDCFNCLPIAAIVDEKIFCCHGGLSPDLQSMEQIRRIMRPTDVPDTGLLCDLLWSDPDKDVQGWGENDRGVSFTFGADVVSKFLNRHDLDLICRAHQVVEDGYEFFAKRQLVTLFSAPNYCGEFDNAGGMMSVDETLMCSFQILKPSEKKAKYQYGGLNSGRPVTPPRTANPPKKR

B1: Glutaredoxin-3/ PKC-interacting cousin of thioredoxin (PICOT) (protein, UniProt O76003 1-335)
chain: MAAGAAEAAVAAVEEVGSAGQFEELLRLKAKSLLVVHFWAPWAPQCAQMNEVMAELAKELPQVSFVKLEAEGVPEVSEKYEISSVPTFLFFKNSQKIDRLDGAHAPELTKKVQRHASSGSFLPSANEHLKEDLNLRLKKLTHAAPCMLFMKGTPQEPRCGFSKQMVEILHKHNIQFSSFDIFSDEEVRQGLKAYSSWPTYPQLYVSGELIGGLDIIKELEASEELDTICPKAPKLEERLKVLTNKASVMLFMKGNKQEAKCGFSKQILEILNSTGVEYETFDILEDEEVRQGLKAYSNWPTYPQLYVKGELVGGLDIVKELKENGELLPILRGEN
B2: Twinfilin-2 (protein, UniProt Q6IBS0 1-349)
chain: MAHQTGIHATEELKEFFAKARAGSVRLIKVVIEDEQLVLGASQEPVGRWDQDYDRAVLPLLDAQQPCYLLYRLDSQNAQGFEWLFLAWSPDNSPVRLKMLYAATRATVKKEFGGGHIKDELFGTVKDDLSFAGYQKHLSSCAAPAPLTSAERELQQIRINEVKTEISVESKHQTLQGLAFPLQPEAQRALQQLKQKMVNYIQMKLDLERETIELVHTEPTDVAQLPSRVPRDAARYHFFLYKHTHEGDPLESVVFIYSMPGYKCSIKERMLYSSCKSRLLDSVEQDFHLEIAKKIEIGDGAELTAEFLYDEVHPKQHAFKQAFAKPKGPGGKRGHKRLIRGPGENGDDS
B3: Heterogeneous nuclear ribonucleoprotein A0 (protein, UniProt Q13151 1-305)
chain: MENSQLCKLFIGGLNVQTSESGLRGHFEAFGTLTDCVVVVNPQTKRSRCFGFVTYSNVEEADAAMAASPHAVDGNTVELKRAVSREDSARPGAHAKVKKLFVGGLKGDVAEGDLIEHFSQFGTVEKAEIIADKQSGKKRGFGFVYFQNHDAADKAAVVKFHPIQGHRVEVKKAVPKEDIYSGGGGGGSRSSRGGRGGRGRGGGRDQNGLSKGGGGGYNSYGGYGGGGGGGYNAYGGGGGGSSYGGSDYGNGFGGFGSYSQHQSSYGPMKSGGGGGGGGSSWGGRSNSGPYRGGYGGGGGYGGSSF

target: Flag-HA-tagged CRABP1 (Cellular Retinoic Acid Binding Protein 1) (UniProt P29762); assay: affinity purification with mass spectrometry; Flag-IP (M2-Flag agarose beads) from lysate of HEK293T cells transfected with Flag-HA-CRABP1, empty Flag-HA vector as control; cells in DCC medium 24 h before harvest (no atRA); Co-IP buffer 50 mM Tris-HCl pH 8.0, 150 mM NaCl, 10 mM MgCl2, 0.2% NP-40, 10% glycerol; candidates: enrichment value > 0, then CRAPome screening

binding, binds:
14-3-3 protein sigma/ Strafilin (from UniProt P31947 1-248)
Ezrin (from UniProt P15311 1-586)
Moesin (from UniProt P26038 1-577)
PKA-RI alpha (endogenous in HEK293T) (from UniProt P10644 1-381)
Peptidyl-prolyl cis-trans isomerase NIMA-interacting 1 (PIN1) (from UniProt Q13526 1-163) (enzyme)
Phosphatidylinositol 3-kinase (PI3K) regulatory subunit alpha (p85) (from UniProt P27986 1-724)
Radixin (from UniProt P35241 1-583)
Serine/threonine-protein phosphatase (PP1) (from UniProt P62140 1-327) (enzyme)
B1
B2
B3

These are yes or no findings as the source states them, for the method shown. In cells and extracts the contact can be indirect. A yes stands for co-enrichment or nearness to the bait. Other partners may have been found.
